In assay [1] the target is T1, MepS (Escherichia coli) (UniProt P0AFV4).
T1 sequence (chain, where used as fl-MepS in MST, NT647 RED-NHS dye on amines): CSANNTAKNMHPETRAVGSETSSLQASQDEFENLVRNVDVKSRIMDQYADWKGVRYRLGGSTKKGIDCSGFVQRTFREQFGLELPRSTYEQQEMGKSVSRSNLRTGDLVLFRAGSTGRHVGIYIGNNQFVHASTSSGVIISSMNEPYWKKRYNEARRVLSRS
As to the kind of experiment: MST + pull-down; endopeptidases tested against each other, 'a combination of MST and Ni2+-NTA pull-down assays'; all combinations of MepM, MepS, PBP4, PBP7; both purified.

Sequences of proteins named here, by UniProt entry; tags and fusion partners are left off. A change or cut given only in a name is not applied to a line headed by its entry. Residues count along the entry.
UniProt P24228, residues 21-477: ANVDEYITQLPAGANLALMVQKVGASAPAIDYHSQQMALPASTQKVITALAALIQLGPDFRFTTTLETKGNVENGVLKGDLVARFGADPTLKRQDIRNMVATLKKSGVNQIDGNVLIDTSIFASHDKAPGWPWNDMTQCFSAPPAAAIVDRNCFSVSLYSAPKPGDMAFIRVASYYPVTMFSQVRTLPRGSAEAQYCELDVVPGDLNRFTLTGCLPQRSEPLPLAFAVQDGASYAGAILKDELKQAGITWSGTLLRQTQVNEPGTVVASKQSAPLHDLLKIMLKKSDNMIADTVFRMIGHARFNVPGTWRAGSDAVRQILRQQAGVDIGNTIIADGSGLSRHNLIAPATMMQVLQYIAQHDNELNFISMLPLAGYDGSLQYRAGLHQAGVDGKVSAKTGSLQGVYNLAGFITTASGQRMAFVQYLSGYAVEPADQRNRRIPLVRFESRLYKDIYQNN
UniProt P0AFS9: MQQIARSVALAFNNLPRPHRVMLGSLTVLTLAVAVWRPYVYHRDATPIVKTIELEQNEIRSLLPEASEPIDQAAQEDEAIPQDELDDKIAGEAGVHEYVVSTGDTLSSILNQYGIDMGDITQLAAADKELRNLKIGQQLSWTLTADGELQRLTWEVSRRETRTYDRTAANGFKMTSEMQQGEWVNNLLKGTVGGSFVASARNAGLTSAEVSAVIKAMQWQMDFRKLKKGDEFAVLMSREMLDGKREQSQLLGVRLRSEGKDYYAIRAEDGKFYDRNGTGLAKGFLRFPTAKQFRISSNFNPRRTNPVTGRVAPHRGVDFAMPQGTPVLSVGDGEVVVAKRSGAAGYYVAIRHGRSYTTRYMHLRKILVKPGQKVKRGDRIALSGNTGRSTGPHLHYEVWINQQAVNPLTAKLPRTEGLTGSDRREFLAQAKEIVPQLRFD

For assay [2], the target named is PBP4, native, purified (Escherichia coli) (UniProt P24228). The description is as above.
Assay [3] concerns the target T2, PBP7, purified (Escherichia coli) (UniProt P0AFI5).
T2 sequence (chain, where used as the labelled protein in MST, NT647 RED-NHS dye on amines): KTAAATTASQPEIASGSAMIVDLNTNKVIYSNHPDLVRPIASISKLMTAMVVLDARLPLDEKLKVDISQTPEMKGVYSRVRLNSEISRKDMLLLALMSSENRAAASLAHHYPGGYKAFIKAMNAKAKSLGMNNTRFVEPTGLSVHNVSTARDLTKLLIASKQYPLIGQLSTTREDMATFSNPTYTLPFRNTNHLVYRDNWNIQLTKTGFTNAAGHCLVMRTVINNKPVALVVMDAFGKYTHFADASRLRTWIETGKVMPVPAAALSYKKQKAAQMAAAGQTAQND
The description is as above.

Assay [4] concerns the target T3, NlpI, soluble version lacking its membrane anchor (Escherichia coli) (UniProt P0AFB1).
T3 sequence (chain, where used as fl-NlpI in MST, NT647 RED-NHS dye on amines): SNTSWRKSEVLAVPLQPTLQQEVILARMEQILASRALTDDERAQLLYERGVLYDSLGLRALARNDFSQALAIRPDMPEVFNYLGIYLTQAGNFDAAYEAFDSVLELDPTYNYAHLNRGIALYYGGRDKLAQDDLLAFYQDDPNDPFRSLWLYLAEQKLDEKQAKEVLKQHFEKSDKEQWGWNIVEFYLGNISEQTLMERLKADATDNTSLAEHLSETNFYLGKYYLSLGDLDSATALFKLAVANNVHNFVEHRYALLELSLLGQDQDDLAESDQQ
The assay can be described thus: pull-down; Ni2+-NTA agarose beads; His-tagged protein with untagged or native ligand, overnight at 4°C; 10 mM HEPES/NaOH, 10 mM MgCl2, 150 mM NaCl, 0.05% Triton X-100, pH 7.5; washes with 30 mM imidazole; SDS-PAGE; both purified.

No constants are given. Whether binding was seen depends on the method and setting. For some of these results: Binding calls can cover weak binding; strength is not graded here.

Among the data in publication PMC7049810 are binding values, retold here.

On to MepM (from UniProt P0AFS9) (enzyme), for which the binding result in assay [1] is listed as “binds”; in assay [2], “no binding”; in assay [3] it was “no binding”; in assay [4] it was “binds”.
